Source: patent publication US11712410 (K18, dated 2023)
No constants are given. Whether binding was seen depends on the method and setting. Some entries that bind do so weakly or less than the wild type.

Biological target: T1, Hair Keratin KRTHB1 Basic (UniProt Q14533 304-505, limits assumed)
T1 construct: The keratin was printed onto a bare gold SPRi chip; also called natural hair keratin
T1 sequence (looked up): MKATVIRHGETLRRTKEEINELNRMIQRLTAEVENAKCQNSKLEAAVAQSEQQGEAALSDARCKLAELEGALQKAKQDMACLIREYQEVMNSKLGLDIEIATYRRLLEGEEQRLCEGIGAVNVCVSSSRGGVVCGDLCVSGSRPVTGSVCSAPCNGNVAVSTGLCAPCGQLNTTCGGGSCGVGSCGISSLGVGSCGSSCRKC
Test: SPRi (PlexArray HT), keratin on chip

B1: Aquis Pep1 (peptide)
peptide: FCGFPSCSTSG
notes: also called Aquis peptide 1; Peptide Aquis 1
- binding: binds
